These are yes or no findings as the source states them, for the method shown. Binding seen in cells or lysates may run through a third protein. These calls come from enrichment with a bait or labelling near it, and not all partners need be listed.
Molecular target: GFP-Nup98^1–920 (human) (UniProt P52948)
Assay: affinity purification with mass spectrometry; GFP-Nup98 immunoprecipitated with anti-GFP on Protein G Dynabeads from HEK293T whole cell lysate (NP-40 cell lysis buffer, 250 mM NaCl, pH 7.4); SDS-PAGE, in-gel digestion, LC-MS/MS

Protein sequences, listed by entry. Tags and fused reporters are not part of them. Lines headed by an entry give the natural chain unless they say otherwise; changes in a name come on top. Chains listed by the source or under a name are the forms on record and can include a tag or linker.
GFP-Nup98^1–920 (P52948, form named): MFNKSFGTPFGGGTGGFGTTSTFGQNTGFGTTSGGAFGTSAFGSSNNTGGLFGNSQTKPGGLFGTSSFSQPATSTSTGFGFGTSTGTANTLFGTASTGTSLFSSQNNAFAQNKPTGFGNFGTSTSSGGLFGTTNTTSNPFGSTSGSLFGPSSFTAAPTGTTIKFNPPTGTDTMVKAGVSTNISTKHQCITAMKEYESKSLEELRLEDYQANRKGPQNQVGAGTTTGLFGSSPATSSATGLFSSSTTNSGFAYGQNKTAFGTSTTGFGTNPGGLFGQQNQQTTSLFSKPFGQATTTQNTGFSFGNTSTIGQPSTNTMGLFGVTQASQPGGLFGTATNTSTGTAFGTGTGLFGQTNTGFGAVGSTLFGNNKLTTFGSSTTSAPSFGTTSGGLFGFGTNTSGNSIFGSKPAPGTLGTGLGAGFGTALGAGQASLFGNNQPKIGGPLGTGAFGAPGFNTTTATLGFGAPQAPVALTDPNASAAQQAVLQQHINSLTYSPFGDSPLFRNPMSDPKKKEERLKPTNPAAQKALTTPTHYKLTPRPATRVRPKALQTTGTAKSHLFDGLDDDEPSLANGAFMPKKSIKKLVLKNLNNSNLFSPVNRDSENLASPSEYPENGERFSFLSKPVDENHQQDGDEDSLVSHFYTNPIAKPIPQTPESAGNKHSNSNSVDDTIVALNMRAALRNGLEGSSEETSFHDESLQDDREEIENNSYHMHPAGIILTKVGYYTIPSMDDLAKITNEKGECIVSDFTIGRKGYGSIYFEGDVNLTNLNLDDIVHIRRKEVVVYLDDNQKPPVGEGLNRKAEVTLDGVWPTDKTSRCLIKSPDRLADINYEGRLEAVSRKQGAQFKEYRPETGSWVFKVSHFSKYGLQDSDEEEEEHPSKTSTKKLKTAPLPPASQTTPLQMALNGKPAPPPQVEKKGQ

- binding: binds
B1: Rae1 (protein, UniProt P78406 1-368)
chain: MSLFGTTSGFGTSGTSMFGSATTDNHNPMKDIEVTSSPDDSIGCLSFSPPTLPGNFLIAGSWANDVRCWEVQDSGQTIPKAQQMHTGPVLDVCWSDDGSKVFTASCDKTAKMWDLSSNQAIQIAQHDAPVKTIHWIKAPNYSCVMTGSWDKTLKFWDTRSSNPMMVLQLPERCYCADVIYPMAVVATAERGLIVYQLENQPSEFRRIESPLKHQHRCVAIFKDKQNKPTGFALGSIEGRVAIHYINPPNPAKDNFTFKCHRSNGTNTSAPQDIYAVNGIAFHPVHGTLATVGSDGRFSFWDKDARTKLKTSEQLDQPISACCFNHNGNIFAYASSYDWSKGHEFYNPQKKNYIFLRNAAEELKPRNKK

Reference: PMC5338925
